Experimental data from PubChem BioAssay AID434947 (Broad Institute, 2010).
About 15 (0.7%) of roughly 2,200 compounds were called active.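 Rule for the calls: active = fitted half-maximal concentration for loss of luminescence signal no more than a set limit of log units above the top tested concentration; inconclusive = flat fit with 30 to 70% signal loss, or invalid fit; inactive = half-maximal concentration above that set limit.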 Some of the results follow.

Assay: ADP-Glo luciferase signal interference – biochemical, luminescence, cell-free, homogeneous, artefact control for GSK3beta inhibitor project, dose response (AID 434947);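 note: kinase-free counter screen of ADP-Glo detection reagents for GSK3beta hits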
Details: Cell-free ADP-Glo reagents, 5 uM ADP

EC50, inactive:
COCCn1c(SCC(=O)NC(=O)NC(C)(C)C)nc2ccccc21 > 30 µM
CCCN(CCC)Cc1c(C(=O)N/N=C/c2cccs2)nnn1-c1nonc1N > 30 µM
O=C(Oc1ccc(Cl)cc1)N1CCCCC1 > 30 µM
Cc1cccc(C(=O)Nc2ccc(O)c3c(=O)cc(-c4ccccc4Cl)oc23)c1 > 30 µM
CCN1CCN(c2nc(Nc3cc(OC)ccc3OC)nc(Nc3cc(OC)ccc3OC)n2)CC1 > 30 µM
CCN(CC)S(=O)(=O)c1ccc(O)c(C(=O)OCC(=O)Nc2cc(C)c(C)cc2[N+](=O)[O-])c1 > 30 µM
N#Cc1c(-c2cccs2)nc(SCC(=O)c2cccs2)[nH]c1=O > 30 µM
COc1ccccc1NC(=S)NC1CCCCCCCCCCC1 > 30 µM
COc1ccccc1/C=N/NC(=O)c1nnn(-c2nonc2N)c1CN(C)c1ccccc1 > 30 µM
O=C(O)c1ccc(N=Nc2c(O)[nH]c3cc(Cl)ccc23)cc1 > 30 µM
COc1ccc(OC)c(Nc2c3ccccc3nc3ccccc23)c1 > 30 µM
Cc1ccc(CC(=O)Nc2ncc([N+](=O)[O-])s2)cc1 > 30 µM
COC(=O)c1ccc2nc(NC(=O)C3CC3)sc2c1 > 30 µM
CCOc1ccc2c(c1)-c1c(ssc1=S)C(C)(C)N2 > 30 µM
CS(=O)(=O)c1ccc2nc(NC(=O)CN3CCN(Cc4ccccc4)CC3)sc2c1 > 30 µM
Cc1ccc(Nc2nc(N)c([N+](=O)[O-])c(NCCO)n2)cc1 > 30 µM
CCCCc1cc(=O)oc2cc(C)cc(OC(C)C(=O)O)c12 (stereo unspecified) > 30 µM
CCc1cc(=O)oc2cc(C)cc(O)c12 > 30 µM
Cc1nn(C)c(C(=O)N2CCc3ccccc32)c1Br > 30 µM
Nc1nonc1-n1nnc(C(=O)N/N=C/c2ccccn2)c1CNc1ccccc1 > 30 µM
CCOc1ccc(/C=C2/C(=N)N3OC(C)=CC3=NC2=O)cc1OC > 30 µM
Cc1ccc2nc3c(cc2c1)c(NC(=O)c1ccco1)nn3CC(C)C > 30 µM
COc1ccc(Nc2nc(NCCCN3CCOCC3)nc(N)c2[N+](=O)[O-])cc1 > 30 µM
CCNc1nc(N)nc(-c2cc(Cl)ccc2OC)n1 > 30 µM
CC(=O)c1cccc(NC(=O)NN2CCN(C)CC2)c1 > 30 µM
COc1ccc(-c2nn(-c3ccccc3)cc2/C=N/O)cc1OC > 30 µM

An excerpt from above in order of molecular weight, high to low:
EC50, inactive:
COc1ccc(Nc2nc(NCCCN3CCOCC3)nc(N)c2[N+](=O)[O-])cc1 > 30 µM
N#Cc1c(-c2cccs2)nc(SCC(=O)c2cccs2)[nH]c1=O > 30 µM
Cc1ccc(Nc2nc(N)c([N+](=O)[O-])c(NCCO)n2)cc1 > 30 µM
